In PubChem BioAssay AID248 (DTP/NCI, 2004) one finds T/C and survivor count data, which are given here for 16 molecules.

The list is a part of this screen's results and no random one: it is rich in T/C values a quarter to a half above the control, in often repeated tests (any T/C) and in doses without a T/C. Other doses and runs of a compound stand elsewhere. T/C is the treated group as % of the vehicle group. Some entries give survivors of the animals treated and no T/C: the source holds a T/C of zero for them, seemingly a mark for toxic or unscored doses. Some survivor counts are full or nearly so, which does not show that the dose was tolerated: the source hardly ever lists a survival T/C far under the control, and the zero likely stands for such cases as well. Counts of survivors are from the toxicity check (mostly the fifth day) where no day follows; animals may have died later. Schedule codes are those of the source, taken here to give the interval after Q, in days (D) or hours (H), and the number of doses after X. Some schedule codes hold Z or #, which are not explained here. Some molecules as drawn cover several salts, stereoisomers or complexes of the source; a dose is that of the sample tested. Additions like (4×) count equal records among those shown. Some doses were run more than once; the results are listed from low to high. For survival time, this PubChem deposit counts one and a half times the control or more as active, and values a quarter to a half above the control carry no call in these data; other NCI protocols may use other cut-offs. Some T/C values carry the count of animals alive at the toxicity check (mostly the fifth day); without a count, all were alive then.

The test system of the test is L1210 leukemia ip in BDF1 mice, survival T/C. The test is described as follows: NCI In Vivo Anticancer Drug Screen. Data for tumor model L1210 Leukemia (intraperitoneal) in B6D2F1 (BDF1) mice. The conditions noted are these: T/C endpoint: mean survival time, higher T/C = longer survival.
Setting [1] is: dose: 200.0 mg/kg/injection, schedule: Q01DX009 (ip), vehicle: saline.
Setting [2] is: dose: 100.0 mg/kg/injection, schedule: Q04DX003 (ip), vehicle: saline.
The mark [3] stands for this setting: dose: 200.0 mg/kg/injection, schedule: Q04DX003 (ip), vehicle: saline.
Setting [4] is: dose: 400.0 mg/kg/injection, schedule: Q04DX003 (ip), vehicle: saline.
Where [5] appears, read: dose: 200.0 mg/kg/injection, schedule: Q01DX009 (ip), vehicle: saline with Tween-80.

On to `CC[C@@]1(O)C[C@H](OC2CC(N(C)C)C(OC3CC(O)C(OC4CCC(=O)C(C)O4)C(C)O3)C(C)O2)c2c(cc3c(c2O)C(=O)c2c(O)ccc(O)c2C3=O)[C@H]1C(=O)OC` (some centres not stated), for which the T/C (dose: 0.5 mg/kg/injection, schedule: Q01DX009 (ip), vehicle: saline) was 125 % of control; the T/C (dose: 1.08 mg/kg/injection, schedule: Q01DX009 (ip), vehicle: water) is 134 % of control; the T/C (dose: 1.5 mg/kg/injection, schedule: Q01DX009 (ip), vehicle: saline) was 138 % of control; the T/C (dose: 1.8 mg/kg/injection, schedule: Q01DX009 (ip), vehicle: water) is 138 % of control [7 of 8 alive]; the T/C (dose: 2.0 mg/kg/injection, schedule: Q01DX003 (ip), vehicle: saline) is 136 % of control; the T/C (dose: 2.0 mg/kg/injection, schedule: Q01DX009 (ip), vehicle: saline) is 125 and 126 % of control. The T/C by setting is: (dose: 2.88 mg/kg/injection, schedule: Q04DX003 (ip), vehicle: water) 133 % of control; (dose: 3.0 mg/kg/injection, schedule: Q01DX009 (ip), vehicle: saline) 125 % of control; (dose: 3.0 mg/kg/injection, schedule: Q04DX003 (ip), vehicle: saline) 127 % of control; (dose: 4.32 mg/kg/injection, schedule: Q01DX001 (ip), vehicle: water) 129 % of control; (dose: 4.8 mg/kg/injection, schedule: Q04DX003 (ip), vehicle: water) 144 % of control; (dose: 7.2 mg/kg/injection, schedule: Q01DX001 (ip), vehicle: water) 143 % of control. Under “dose: 8.0 mg/kg/injection, schedule: Q04DX003 (ip), vehicle: water”, the T/C was 129 % of control. In addition, the survivor count is, setting by setting: (dose: 4.0 mg/kg/injection, schedule: Q01DX003 (ip), vehicle: saline) 6 of 6; (dose: 4.0 mg/kg/injection, schedule: Q01DX009 (ip), vehicle: saline) 6 of 6; (dose: 5.0 mg/kg/injection, schedule: Q01DX009 (ip), vehicle: water) 8 of 8; (dose: 6.0 mg/kg/injection, schedule: Q01DX009 (ip), vehicle: saline) 6 of 6.
For the molecule `CC(C)C[CH2][Pb]([CH2]CC(C)C)([CH2]CC(C)C)[O]C(=O)C(Cl)(Cl)Cl`, the survivor count is, setting by setting: (dose: 12.5 mg/kg/injection, schedule: Q01DX009 (ip), vehicle: Klucel (hydroxypropylcellulose) (HPC)) 2 of 6; (dose: 18.0 mg/kg/injection, schedule: Q01DX009 (ip), vehicle: Klucel (hydroxypropylcellulose) (HPC)) 0 of 6; (dose: 25.0 mg/kg/injection, schedule: Q04DX002 (ip), vehicle: Klucel (hydroxypropylcellulose) (HPC)) 3 of 3; (dose: 28.0 mg/kg/injection, schedule: Q01DX009 (ip), vehicle: Klucel (hydroxypropylcellulose) (HPC)) 0 of 6; (dose: 40.0 mg/kg/injection, schedule: Q01DX009 (ip), vehicle: Klucel (hydroxypropylcellulose) (HPC)) 0 of 6; (dose: 50.0 mg/kg/injection, schedule: Q04DX002 (ip), vehicle: Klucel (hydroxypropylcellulose) (HPC)) 0 of 3. The survivor count is recorded as 0 of 3 (dose: 100.0 mg/kg/injection, schedule: Q04DX002 (ip), vehicle: Klucel (hydroxypropylcellulose) (HPC)); 0 of 3 (dose: 200.0 mg/kg/injection, schedule: Q04DX002 (ip), vehicle: Klucel (hydroxypropylcellulose) (HPC)); 0 of 3 (dose: 400.0 mg/kg/injection, schedule: Q04DX002 (ip), vehicle: Klucel (hydroxypropylcellulose) (HPC)).
On to `CC(C)CC(B1OCCO1)(C1CCCCC1)C1CCCCC1`, for which, for the setting “dose: 400.0 mg/kg/injection, schedule: Q01DX009 (ip), vehicle: saline with Tween-80”, the survivor count was 1 of 6.
As for `CC(C)N(CCC#N)CN1C(=O)c2ccccc2C1=O`, the survivor count (dose: 400.0 mg/kg/injection, schedule: Q01DX009 (ip), vehicle: Klucel (hydroxypropylcellulose) (HPC)) is 2 of 6.
Consider `COc1ccc(OC)c(CCc2cc(OC)ccc2OC)c1`, for which the survivor count by setting is: (dose: 100.0 mg/kg/injection, schedule: Q04DX003 (ip), vehicle: other) 6 of 6; (dose: 200.0 mg/kg/injection, schedule: Q04DX003 (ip), vehicle: other) 6 of 6; (dose: 400.0 mg/kg/injection, schedule: Q04DX003 (ip), vehicle: other) 6 of 6.
Regarding `CCOC(=O)c1ccc2cc(C(=O)c3ccccc3)ccc2n1`, the survivor count under setting [1] is listed as 6 of 6.
Same read-out and setting: under `C[CH2][Sn](/[CH]=C/C(C)(C)O)([CH2]C)[CH2]C` stands 1 of 3.
For `CCNc1ccc(/C=C2\C=Cc3ccccc32)cc1`, the survivor count reads like this: (dose: 200.0 mg/kg/injection, schedule: Q01DX009 (ip), vehicle: Klucel (hydroxypropylcellulose) (HPC)) 5 of 6; (dose: 300.0 mg/kg/injection, schedule: Q01DX001 (ip), vehicle: olive oil, sesame oil, peanut oil) 2 of 6.
Take `CCCCCCCCCCCCNC(=O)c1cc[n+](C)cc1`: the survivor count is 0 of 6 and 2 of 6 under setting [2]; 0 of 6 and 1 of 6 under setting [3]; 0 of 6 (2×) under setting [4].
Regarding `NCCc1ccc(NC(=O)c2ccc(C(=O)Nc3ccc(CCN)cc3)c([N+](=O)[O-])c2)cc1`, the survivor count (dose: 50.0 mg/kg/injection, schedule: Q01DX015 (ip), vehicle: methylcellulose (MC)) is 0 of 6 and the survivor count (dose: 100.0 mg/kg/injection, schedule: Q01DX015 (ip), vehicle: methylcellulose (MC)) is 0 of 6.
Regarding `O=[N+]([O-])c1cccc2cccnc12`, the T/C (dose: 200.0 mg/kg/injection, schedule: Q01DX001 (ip), vehicle: saline) is 125 % of control. The survivor count is recorded as 3 of 6 under setting [5] and 2 of 4 (dose: 400.0 mg/kg/injection, schedule: Q01DX001 (ip), vehicle: saline).
Regarding `Cc1ccc2nc3c(nc2c1)-c1cccc2cccc-3c12`, the survivor count reads like this: (dose: 100.0 mg/kg/injection, schedule: Q01DX009 (ip), vehicle: saline with Tween-80) 6 of 6; (dose: 400.0 mg/kg/injection, schedule: Q04DX003 (ip), vehicle: saline with Tween-80) 6 of 6.
For `COC(=O)C12OCC34C(CC5C(C)=C(O)C(=O)CC5(C)C3C(O)C1O)OC(=O)C(OC(=O)C=C(C)C)C24` (configuration not stated), the survivor count is 1 of 3 (dose: 6.25 mg/kg/injection, schedule: Q04DX002 (ip), vehicle: saline with Tween-80); 0 of 3 (dose: 12.5 mg/kg/injection, schedule: Q04DX002 (ip), vehicle: saline with Tween-80); 0 of 3 (dose: 25.0 mg/kg/injection, schedule: Q04DX002 (ip), vehicle: saline with Tween-80); 0 of 3 (dose: 100.0 mg/kg/injection, schedule: Q04DX002 (ip), vehicle: saline with Tween-80); 0 of 3 (dose: 200.0 mg/kg/injection, schedule: Q04DX002 (ip), vehicle: saline with Tween-80); 0 of 3 (dose: 400.0 mg/kg/injection, schedule: Q04DX002 (ip), vehicle: saline with Tween-80).
`CC1(C)N=C(N)N=C(N)N1c1ccccc1F`: the survivor count is on record as 3 of 6 (dose: 150.0 mg/kg/injection, schedule: Q01DX001 (ip), vehicle: saline); 3 of 6 (dose: 150.0 mg/kg/injection, schedule: Q01DX009 (ip), vehicle: saline); 0 of 6 (dose: 300.0 mg/kg/injection, schedule: Q01DX009 (ip), vehicle: saline).
Take `CN1CCN(C(=O)c2ccc(Cl)c(Cl)c2)CC1`: the survivor count is, setting by setting: under setting [2], 3 of 6; under setting [5], 0 of 6; under setting [3], 0 of 6; under setting [4], 0 of 6.
`Cc1c(NC(=O)Nc2ccc(C3=NCCN3)cc2)cccc1NC(=O)Nc1ccc(C2=NCCN2)cc1`: the T/C (dose: 5.0 mg/kg/injection, schedule: Q01DX Z (ip), vehicle: carboxymethylcellulose (CMC)) is 135 % of control. In addition, the survivor count by setting is: (dose: 72.0 mg/kg/injection, schedule: Q01DX Z (ip), vehicle: water) 1 of 6; (dose: 250.0 mg/kg/injection, schedule: Q01DX Z (ip), vehicle: saline) 0 of 6; (dose: 500.0 mg/kg/injection, schedule: Q01DX Z (ip), vehicle: saline) 0 of 6.
